Experimental data from article PMC4242493.
For at least one entry, the source does not settle the construct or the ends of the probe. The comparison behind a weaker result is the experiment's own reference, which may not be listed here.

Protein sequences, listed by entry. Tags and fused reporters are not part of them.
UniProt P61244, whole entry: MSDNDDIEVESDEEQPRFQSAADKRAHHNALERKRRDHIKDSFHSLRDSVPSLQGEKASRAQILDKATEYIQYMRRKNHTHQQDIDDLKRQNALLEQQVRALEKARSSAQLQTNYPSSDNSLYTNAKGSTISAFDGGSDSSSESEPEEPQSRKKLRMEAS

Target: MaxL (UniProt P61244)
Assay: PBM
Details: 10 nM MaxL homodimer, 4- or 5-fold reduction vs GCACGTGC; recombinant protein; protein details: C-terminal His-tag (pET21a)

TCACGTGA (double strand) [PBM 8-mer TCACGTGA]
binding result: binds more weakly
